The list shows a part of the results. These are raw signals, not scaled to a control.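 Primary screen: polymyxin B was added at a level permeabilizing Salmonella outer membranes while sparing inner membranes. DMSO wells, both with and without polymyxin B, established maximum growth. Plate-to-plate variation meant each plate was ranked on its own, and the lowest-OD600 compounds were selected as hits.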
Test system: Salmonella enterica serovar Typhimurium SL1344
Assay: bacterial growth OD600 after 18 h with compound and polymyxin B; higher = more bacterial growth (less inhibition)
Conditions: 50 µM, Mueller-Hinton broth

Structure (SMILES) | bacterial growth OD600 (polymyxin B 1 µg/mL) | bacterial growth OD600 (polymyxin B 0.75 µg/mL)
CC(=O)NCCC1CCN(Cc2nc(-c3ccc(C(F)(F)F)cc3)no2)CC1 | 0.936 | –
COC(=O)c1sccc1S(=O)(=O)N1CCCC(C(=O)c2cccc(Cl)c2)C1 (configuration not stated) | 0.002 | –
C=CCN1CC(C(=O)N2CCc3onc(-c4ccccc4F)c3C2)CC1=O (configuration not stated) | – | 0.816
O=C(NCC1Cc2cccc(-c3ncccn3)c2O1)c1cccs1 (configuration not stated) | – | 0.957
O=C(c1ccco1)N1CCC(C2CCN(c3ncccn3)CC2)C1 (configuration not stated) | – | 0.842
CC(C)(C)CN1CC(NC2CCCCC2)CC1=O (configuration not stated) | 0.96 | –
O=C(NCc1cccnc1N1CCOCC1)c1cccs1 | 1.02 | –
CO[C@H]1[C@H](NC(=O)C(C)C)c2ccccc2C12CCN(C(=O)c1cc3c(nc1Cl)CCC3)CC2 | – | 0.81
CCN(CC)c1ncccc1CNC(=O)c1ccnc(NC)c1 | 0.932 | –
COc1ccc(C(CC(=O)N(C)Cc2nnc(C)o2)c2ccccc2)cc1 (configuration not stated) | 0.917 | –
COc1cccc(C2CCCN2C(=O)CCCn2nnnc2CN2CCOCC2)c1 (configuration not stated) | 1.02 | –
COc1cc(CC2(CCC(=O)N3CCCC(C)C3)CCC(=O)N2)ccc1F (configuration not stated) | – | 0.763
Cc1nc(N2CCCC2C(=O)NCc2cccc(C(F)(F)F)c2)nc2cc(S(C)(=O)=O)ccc12 (configuration not stated) | – | 0.743
Cc1c(CC(=O)N2CCC[C@H]2C(N)=O)c2c(n1Cc1ccccc1)CCCC2=O | 1.11 | –
Cc1nc(CNC(=O)CCC2(Cc3ccc(Cl)cc3)CCC(=O)N2)cs1 (configuration not stated) | – | 0.848
COCCN1CC(C(=O)NCc2cccc(OC(F)(F)F)c2)CCC1=O (configuration not stated) | 1.1 | –

Exported with tabs: 2 of the compounds above
Structure (SMILES)	bacterial growth OD600 (polymyxin B 1 µg/mL)	bacterial growth OD600 (polymyxin B 0.75 µg/mL)
CO[C@H]1[C@H](NC(=O)C(C)C)c2ccccc2C12CCN(C(=O)c1cc3c(nc1Cl)CCC3)CC2	–	0.81
CCN(CC)c1ncccc1CNC(=O)c1ccnc(NC)c1	0.932	–

More entries

Structure (SMILES) | bacterial growth OD600 (polymyxin B 1 µg/mL) | bacterial growth OD600 (polymyxin B 0.75 µg/mL)
Cc1cc(C)n(Cc2cc(C(=O)NCCCN3CCOCC3)n[nH]2)n1 | 1.15 | –
COc1ccccc1C1CN(CCNC(=O)c2ccc(N3CCOCC3)cc2)Cc2ccccc2O1 (configuration not stated) | – | 0.128
COCCn1cnc2cc(NC(=O)C3CCCCC3)cc(C(=O)N(C)CC3Cc4ccccc4O3)c21 (configuration not stated) | – | 0.685
COc1ccc(C(CC(=O)N2CCCC2)c2ccccc2)cc1 (configuration not stated) | 0.821 | –
Cc1ncoc1C(=O)N1CCCC(C(=O)Nc2cccc(-c3ccc(F)cc3)c2)C1 (configuration not stated) | 0.868 | –
CC(C)c1cc(C(=O)N2CCc3[nH]nc(-c4ccc(Cl)cc4)c3C2)no1 | – | 0.507
COC(=O)c1ccc(CN2CCC(CCC(=O)Nc3cccc(OC)c3)CC2)cc1 | 0.892 | –
OC(Cc1ccccc1)c1ccc2c(c1)CN(Cc1cccc(F)c1F)CCO2 (configuration not stated) | – | 0.121
CCOC(=O)N1CCN(C2CCCN(C(=O)c3scc4c3CCCC4)C2)CC1 (configuration not stated) | 0.984 | –
CCOC(=O)C1(CCOc2ccccc2)CCCN(Cc2cnn(CC)c2)C1 (configuration not stated) | 1.02 | –
O=C(C1=CCCC1)N1CCCC(N2CCN(Cc3ccc4c(c3)OCO4)CC2)C1 (configuration not stated) | – | 0.766
O=C(Nc1cccc(-c2cc3ccccc3[nH]2)c1)C1CCCN(C2CCOCC2)C1 (configuration not stated) | 0.863 | –
c1cncc(CN2CCc3[nH]nc(-c4ccc5c(c4)OCO5)c3C2)c1 | – | 0.834
O=C(c1cc(F)ccc1F)C1CCCN(C(=O)CN2C(=O)c3ccccc3C2=O)C1 (configuration not stated) | 0.79 | –
CCN(CC)CC(O)COc1ccc(CNCC2CCCCC2)cc1OC (configuration not stated) | 1.09 | –
Cc1nc(N2CCC(C(=O)NCCc3cnn(-c4ccccc4)c3)CC2)nc2ccc(C(C)C)cc12 | – | 0.511

— the supplement of paper PMC12889115
